Library screen at single concentrations

Protein sequences, listed by entry. Tags and fused reporters are not part of them. Residues count along the entry.
UniProt Q8IDJ8, 1-583: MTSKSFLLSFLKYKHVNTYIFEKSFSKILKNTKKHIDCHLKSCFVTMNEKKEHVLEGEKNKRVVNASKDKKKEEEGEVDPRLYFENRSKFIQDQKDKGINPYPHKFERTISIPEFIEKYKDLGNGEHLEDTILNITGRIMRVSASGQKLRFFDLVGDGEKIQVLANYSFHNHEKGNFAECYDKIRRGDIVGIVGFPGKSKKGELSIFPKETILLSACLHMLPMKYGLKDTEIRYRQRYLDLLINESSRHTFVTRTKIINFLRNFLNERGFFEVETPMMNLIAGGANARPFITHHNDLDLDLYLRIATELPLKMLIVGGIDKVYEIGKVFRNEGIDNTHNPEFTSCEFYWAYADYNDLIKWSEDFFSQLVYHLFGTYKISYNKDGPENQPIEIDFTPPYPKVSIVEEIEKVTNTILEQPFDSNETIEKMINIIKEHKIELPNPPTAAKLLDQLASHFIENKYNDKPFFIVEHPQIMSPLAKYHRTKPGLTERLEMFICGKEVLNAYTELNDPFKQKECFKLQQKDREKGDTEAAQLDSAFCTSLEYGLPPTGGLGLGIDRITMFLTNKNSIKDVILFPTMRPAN
UniProt P9WFT3, whole entry: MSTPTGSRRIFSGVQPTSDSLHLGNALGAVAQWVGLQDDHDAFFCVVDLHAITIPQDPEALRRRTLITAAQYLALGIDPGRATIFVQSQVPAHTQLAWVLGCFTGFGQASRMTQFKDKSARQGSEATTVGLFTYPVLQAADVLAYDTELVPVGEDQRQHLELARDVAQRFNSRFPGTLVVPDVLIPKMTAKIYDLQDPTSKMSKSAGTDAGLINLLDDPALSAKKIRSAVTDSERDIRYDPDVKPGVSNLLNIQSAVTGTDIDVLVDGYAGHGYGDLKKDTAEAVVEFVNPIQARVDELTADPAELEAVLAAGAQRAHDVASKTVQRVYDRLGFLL

PfKRS1: 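Enzyme assay of the cytosolic lysyl-tRNA synthetase in 384-well plates, read by luminescence. Target: Lysine-tRNA ligase, Plasmodium falciparum 3D7 (UniProt Q8IDJ8). Concentration: 30 µM. Higher reads as stronger inhibition, judged from the few compounds that gave an IC50. Size under these conditions: about 69,000 compounds, about 49 of them at 50% or above in at least one test.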
MtTrpRS: 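Enzyme assay of tryptophanyl-tRNA synthetase; the read-out is not stated. Target: Tryptophan-tRNA ligase, Mycobacterium tuberculosis (UniProt P9WFT3). Tested at 10 µM. Direction is not recorded; retested compounds ran higher, which suggests that high means inhibition. Of about 65,000 compounds tested this way, about 64 (0.098%) reached 50% or more in at least one test.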
Leishmania in macrophages: 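Cell assay of Leishmania donovani living inside macrophages; the read-out is not stated. Concentration: 30 µM. Higher reads as stronger inhibition (inferred: compounds with an IC50 in retests scored well above the rest). Of about 69,000 compounds tested this way, about 1,000 (1.5%) reached 50% or more in at least one test.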

Each number is a percent effect as filed. The controls that fix the scale are not given in the record; negative values are as filed. Compounds were drawn at random from those tested, without regard to their results. Two or more numbers in one place are separate tests of the same structure; such repeats can differ widely. A dash means the value is not listed here; it may have been measured.

SMILES | PfKRS1 | MtTrpRS | Leishmania in macrophages
Oc1ccc(N2CCN(Cc3cc4c(cc3Br)OCCO4)CC2)cc1 | -3.318% | 0.3791% | 39.31%
Cc1nc(C)n(CC2CCCCN2CC(=O)Nc2nnc(C)s2)n1 (centres undefined) | 1.898% | -2.985% | 12.44%
CN1C[C@@H](O)[C@]2(CCN(C(=O)c3ccccc3)C2)S1(=O)=O | 0.9439% | - | -12.56%
CC(Sc1nnc(C2CC2)n1CC(N)=O)c1ccc(Cl)cc1 (centres undefined) | 3.323% | -1.149% | 10.35%
CC(C)c1ccc(CN2CCC(CNS(=O)(=O)C3CC3)C2)cc1 (centres undefined) | 3.937% | -5.131% | 33.64%
Cc1cnc2n(c1=O)C(CC(=O)NCc1ccc(Cl)cc1)CS2 (centres undefined) | -0.2907% | -1.321% | 25.24%
CC(NC(=O)c1coc(COc2cccc(F)c2)n1)c1nnc(N)s1 (centres undefined) | 3.222% | -3.993% | 19.55%
COc1ccc(C)cc1C(=O)NC1(C#N)CCOCC1 | 5.834% | -0.9332% | -12.25%
Cc1ccccc1CC(=O)N(C)C1CCCC1 | 1.687% | -0.08446% | -4.753%
CCNc1ccnc(-c2ccnc3c2ccn3C)n1 | 5.959% | -4.678% | 1.776%
CCC(CC)C(=O)n1ccn(S(=O)(=O)c2ccc(C)cc2)c1=O | 2.664% | 2.113% | -17.4% and 28.66%
CN(C)CC(=O)N1CCc2sc(C(=O)NCC3CC3)cc21 | 2.409% | 2.351% | -
O=C(C1CCC1)N1CCC2(COCc3cnc(N4CCOCC4)nc32)C1 (centres undefined) | -4.082% | 2.623% | 3.551%
O=c1oc(-c2ccc(F)cc2)nn1CN1CCSCC1 | 0.5456% | 1.461% | -4.454%
CNc1nc2c(c(C(=O)N3CCCC3)n1)CN(Cc1cc(C)no1)CC2 | -0.4245% | -6.419% | 8.274%
COC(=O)c1ccc(S(=O)(=O)N(C)CC(N)=O)c(Cl)c1 | -2.55% | 1.212% | 8.238%
CCCc1nnc(NC2CCN(CCO)CC2)o1 | -3.603% | 1.032% | 24.35%
c1cncc(-c2c[nH]c([C@@H]3COCCN3Cc3ccncc3)n2)c1 | 2.625% | -0.8391% | 35.12%
Cc1cccnc1CN1CCCCC1c1ccn2ccnc2n1 (centres undefined) | 1.805% | - | 16.58% and 12.3%
CCOC(=O)CSc1nnc([C@@H](N)C(C)C)o1 | 0.2368% | -0.143% | -
Cc1cnn(CC2CCCCN2CC(=O)N(C)Cc2ccc(C)o2)c1 (centres undefined) | 2.906% | 6.261% | -9.573%
CS(=O)(=O)Cc1nc(CCc2ccccc2)nn1-c1ccccn1 | 1.526% | 0.7064% | 6.598%
CCc1nc(C2CCCN(C(=O)c3ccc4c(c3)nnn4C)C2)no1 (centres undefined) | 8.913% | -1.642% | 3.126%
O=C(c1cscn1)N(CCCO)S(=O)(=O)c1cccs1 | 3.504% | 0.3358% | 1.021%
O=C(N1CCC(Oc2ccncc2)C1)C1(c2ccccc2F)CC1 (centres undefined) | 4.144% | -2.832% | 4.248%
COc1ccc(CN(C(=O)C(C)C)c2cnn(C)c2)c(OC)c1 | 4.778% | 0.5452% | 32.32%
O=S1(=O)C[C@@H]2[C@H](C1)N(Cc1cccc(O)c1)CCN2CC1CC1 | 3.448% | -3.961% | -
COc1cccc(CCC(=O)Nc2ccn(C)n2)c1OC | 3.458% | -3.35% | 21.78%
COCc1nc2ncc3c(=O)n(-c4ccc(C(C)=O)cc4)ccc3n2n1 | 2.37% | 4.387% | -1.147%
CSc1cc2c(cc1NC(=O)NCC1CCOC1)OCCO2 (centres undefined) | 4.308% | -6.256% | -11.97%
CN1CC(Oc2ccccc2)=NC(SCC(=O)Nc2ccccc2Cl)=N1 | 4.71% | 3.469% | 11.64%
Clc1ccc(C2(NCc3noc(C4CC4)n3)CCOCC2)cc1 | 4.283% | -4.107% | 9.557%
CC(C)CC1COCCN1C(=O)Cc1cccs1 (centres undefined) | 6.133% | 2.42% | 15.42%
[H][C@@]12CS(=O)(=O)C[C@]1([H])N(Cc1ccc(CC)cc1)CCN2CCOC | - | - | 6.835%
[H][C@@]12CCCCN(C)[C@]1([H])[C@@H](c1ccccc1)CCN2S(=O)(=O)N1CCCC1 | - | - | 6.195% and 14.49%
N#Cc1nc(COc2ccc3c(c2)OCO3)oc1N1CCCC1 | 1.552% | 1.471% | 24%
COCC(=O)Nc1nccn1Cc1ccc(Br)cc1 | 0.05772% | 2.415% | 13.5%
O=C1NCCN2CCN(Cc3ccc(Cl)c(Cl)c3)CC12 (centres undefined) | 6.092% | 0.5747% | 15.31%
N#CCCN(C(=O)CN1CCCC1C1CCCCC1)c1ccccc1 (centres undefined) | -2.421% | 4.315% | 27.46%
Cc1ccc2nc(C3CCCN3Cc3nnc(C)s3)[nH]c2c1 (centres undefined) | -3.292% | 3.961% | -7.829%
O=C(O)C(F)(F)F.O=C(O)C(F)(F)F.O=C(O)C(F)(F)F.[H][C@]12CCN(Cc3ccc(C)s3)CC[C@]1([H])N(Cc1ccncc1)CCO2 | - | - | -14.43%
O=C(NCC1OCCc2cn(CC3CCOCC3)nc21)c1ccsc1 (centres undefined) | -3.575% | 26.37% | -
CCc1oc(C(=O)NCCc2cc(O)nc(C)n2)cc1CN1CCCC1 | 0.4186% | 0.8704% | 6.129%
Cc1ccc(N2CC[C@H]3O[C@H](C(=O)NCc4ccco4)CC[C@H]32)nn1 | 3.347% | 0.6975% | -

4 of the entries, repeated:

With COc1ccc(C)cc1C(=O)NC1(C#N)CCOCC1 the screen gave PfKRS1: 5.834%; MtTrpRS: -0.9332%; Leishmania in macrophages: -12.25%.
With CCC(CC)C(=O)n1ccn(S(=O)(=O)c2ccc(C)cc2)c1=O the screen gave PfKRS1: 2.664%; MtTrpRS: 2.113%; Leishmania in macrophages: -17.4% and 28.66%.
With Cc1ccc(N2CC[C@H]3O[C@H](C(=O)NCc4ccco4)CC[C@H]32)nn1 the screen gave PfKRS1: 3.347%; MtTrpRS: 0.6975%.
With COC(=O)c1ccc(S(=O)(=O)N(C)CC(N)=O)c(Cl)c1 the screen gave PfKRS1: -2.55%; MtTrpRS: 1.212%; Leishmania in macrophages: 8.238%.

Source: ChEMBL document CHEMBL3988442, “University of Dundee, Small-Polar-MMV Screening Library” (2021).